# Among all 410,000 compounds or so, about 18,000 (4.4%) were called active. This list was built around the results that the source calls inconclusive (neither active nor inactive); the mix of calls is not that of the screen. No stated cut-off is given here; in the data, active means activity change below about -60%; inconclusive means no clear call, values can overlap the other calls; inactive means above about -39%.
# Experiment: qHTS Assay for inhibitors of the human cytomegalovirus (HCMV)
# Conditions: HFF cells, HCMV-luciferase reporter, 72 h; at 57.5 µM; hits give low values
# Procedure, shortened: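 HFF cells seeded 16 h at 37C, treated with compounds, infected with luciferase-reporter HCMV at MOI 1 PFU/cell; luciferase read at 72 h post infection, normalized to buffer-only and Salinomycin controls.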
# On the % scale 0 is the no-effect control and ±100 the full control effect.
row,Structure (SMILES),"activity change, negative = inhibition"
1,Cc1cccc(C)c1NC(=O)C(c1ccccc1OC(F)(F)F)N1CCN(C/C=C/c2ccccc2)CC1 (centres undefined),inactive: 12.8%
2,COc1ccc(C(=O)CCC(=O)Nc2ccc(F)cc2F)cc1,inactive: -7.01%
3,Cc1ccc(OCC(=O)N(C)CC(=O)Nc2ccc(N3CCOCC3)cc2)cc1,inconclusive: -40.6%
4,COC(=O)c1sccc1-c1ccc(C(=O)Nc2cccnc2)o1,inconclusive: -58%
5,Cc1ccc(S(=O)(=O)N2CCN(C(=O)CNC(=O)c3ccc(Br)o3)CC2)cc1,inactive: -25.3%
6,O=C(Nc1nccs1)c1sc2cc(Cl)ccc2c1Cl,inactive: 93.1%
7,Cn1c(=S)c2[nH]c(SCC3CCCO3)nc2n(C)c1=O (centres undefined),inconclusive: -54.7%
8,O=C(Nc1ccccc1N1CCOCC1)c1cccnc1Cl,inactive: 24.6%
9,CCOc1ccc(NC(=O)Nc2cnccn2)cc1,inconclusive: -42%
10,Cc1ccc(C)c(S(=O)(=O)NCC(c2ccco2)N2CCc3ccccc3C2)c1 (centres undefined),inconclusive: -45.5%
11,CCCn1cnc2cc(NCc3ccccc3OCC)ccc21,inconclusive: -55%
12,CCOc1cc(CNCCCN2CCOCC2)cc(Br)c1OCc1ccccc1Cl,inconclusive: -49.3%
13,CC(=O)Oc1ccc(OC(C)=O)c(SCCCCCN2CCOCC2)c1,inconclusive: -55%
14,O=C1C=C(c2ccc(F)cc2OCc2ccccc2)C[C@@H](c2ccc(Cl)cc2)C1,inconclusive: -45.7%
15,COC1C(C)OC(OC2CC(C)(O)Cc3cc4c(c(O)c32)C(=O)c2c(O)cc3c(c2C4=O)OC2OC3(C)C(O)C(N(C)C)C2O)C(OC)C1(C)OC (centres undefined),active: -97.9%
16,CC(C)CCNc1ncnc2c1nnn2Cc1ccccc1,inactive: 35.5%
17,Cc1sc2ncnc(NCc3ccccc3)c2c1C,inconclusive: -41.1%
18,C#CC[N+]1(CC#Cc2cccc3ccccc23)CCOCC1,inactive: -35.1%
19,Cc1cc(C)c(S(=O)(=O)NCc2nc3nc(C)cc(C)n3n2)c(C)c1,inactive: 4.83%
20,CC(C)C[C@H](NC(=O)CCCn1nnc2ccccc2c1=O)C(=O)O,inconclusive: -41.8%
21,O=C(CSCc1ccc([N+](=O)[O-])cc1)N/N=C/c1cccnc1,inconclusive: -52.5%
22,CCOC(=O)Cn1nc(NC(=O)c2ccc3c(c2)OCO3)cc1C,inactive: 9.59%
23,C=CC[C@H](CC(=O)NCCO)C(=O)NC[C@H](OC(=O)[C@@H](CC=C)Cc1ccc(F)cc1)c1ccccc1,inactive: 11.1%
24,COc1ccc(CNC(=O)CCCn2nc(C)c3c(C)n(-c4ccc(C)cc4)nc3c2=O)cc1,inconclusive: -56.9%

# 2 of the compounds above, with bars between the fields.
row | Structure (SMILES) | activity change, negative = inhibition
11 | CCCn1cnc2cc(NCc3ccccc3OCC)ccc21 | inconclusive: -55%
12 | CCOc1cc(CNCCCN2CCOCC2)cc(Br)c1OCc1ccccc1Cl | inconclusive: -49.3%
